Data as given in PubChem BioAssay AID1259308 (NCATS, 2017)
The deposit covers about 59,000 reagents; shown is a part drawn at random. Over the whole deposit, about 1,510 (2.6%) were called active. 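Calls use total luciferase alone and ignore viability, so some active siRNAs may act by altering cell number.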 Entries without a mark were called inactive. Further read-outs or replicates are left out here.

Screen: 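Genes whose loss raises luciferase production in HEK293 cells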 (primary screen)
System: human HEK293 embryonic kidney cells stably expressing firefly luciferase (HEK-CMV-Luc2-Hygro)
Reagents: single siRNA against human genes, 0.8 pmol siRNA per well
Timing: 72 h
Detection: 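Reporter luminescence and viable-cell signal on separate replicate plates, given as percent of non-targeting control and median/MAD z-scores, plus per-cell luciferase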
Direction: total luciferase, z-score: higher = more reporter protein produced
Call rule: 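An siRNA counts as active if its total luciferase robust z-score exceeds 3; genes with two or more such siRNAs out of three were retested with fresh siRNAs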
Calls: active = raised luciferase; inactive = no rise

no.	Target gene	PubChem SID	total luciferase, z-score
1	WFIKKN2 (GeneID 124857)	SID160756252	-2.6
2	WFIKKN2 (GeneID 124857)	SID160756254	0.707
3	WFIKKN2 (GeneID 124857)	SID160756255	-0.835
4	SOX14 (GeneID 8403)	SID160719966	-1.91
5	SOX14 (GeneID 8403)	SID160719967	0.776
6	SOX14 (GeneID 8403)	SID160732005	1.25
7	SLC52A1 (GeneID 55065)	SID160731487	0.00629
8	SLC52A1 (GeneID 55065)	SID160742853	-0.567
9	SLC52A1 (GeneID 55065)	SID160742854	1.56
10	MIR9-1HG (GeneID 10485)	SID160728549	-0.0362
11	MIR9-1HG (GeneID 10485)	SID160728550	-1.02
12	MIR9-1HG (GeneID 10485)	SID160732282	-1.57
13	C1orf87 (GeneID 127795)	SID160756676	0.124
14	C1orf87 (GeneID 127795)	SID160756677	-0.633
15	C1orf87 (GeneID 127795)	SID160756678	-0.289
16	DRD2 (GeneID 1813)	SID160756285	0.713
17	DRD2 (GeneID 1813)	SID160756295	-0.397
18	DRD2 (GeneID 1813)	SID160756306	-0.949
19	OR10G2 (GeneID 26534)	SID160738073	-0.771
20	OR10G2 (GeneID 26534)	SID160738074	0.708
21	OR10G2 (GeneID 26534)	SID160738075	1.44
22	XAB2 (GeneID 56949)	SID160745372	2.19
23	XAB2 (GeneID 56949)	SID160745373	2.44
24	XAB2 (GeneID 56949)	SID160745374	0.451
25	ZNF611 (GeneID 81856)	SID160751034	0.855
26	ZNF611 (GeneID 81856)	SID160751035	-0.492
27	ZNF611 (GeneID 81856)	SID160751036	-1.12
28	LSS (GeneID 4047)	SID160760817	-2.31
29	LSS (GeneID 4047)	SID160760918	-0.354
30	LSS (GeneID 4047)	SID160761021	-0.312
31	RUSF1 (GeneID 64755)	SID160747903	-1.1
32	RUSF1 (GeneID 64755)	SID160747904	-0.64
33	RUSF1 (GeneID 64755)	SID160747905	0.409
34	PPP1R14A (GeneID 94274)	SID160724716	-1.23
35	PPP1R14A (GeneID 94274)	SID160754660	0.419
36	PPP1R14A (GeneID 94274)	SID160754663	-0.129

Laid out differently: entries from further up
Target gene	PubChem SID	total luciferase, z-score
MIR9-1HG (GeneID 10485)	SID160732282	-1.57
C1orf87 (GeneID 127795)	SID160756676	0.124
C1orf87 (GeneID 127795)	SID160756677	-0.633
C1orf87 (GeneID 127795)	SID160756678	-0.289
DRD2 (GeneID 1813)	SID160756285	0.713
DRD2 (GeneID 1813)	SID160756295	-0.397
DRD2 (GeneID 1813)	SID160756306	-0.949
OR10G2 (GeneID 26534)	SID160738073	-0.771
OR10G2 (GeneID 26534)	SID160738074	0.708
OR10G2 (GeneID 26534)	SID160738075	1.44

The listing continues.
no.	Target gene	PubChem SID	total luciferase, z-score
37	FBXO31 (GeneID 79791)	SID160749444	0.0424
38	FBXO31 (GeneID 79791)	SID160749445	-0.655
39	FBXO31 (GeneID 79791)	SID160749446	-1.84
40	PNRC2 (GeneID 55629)	SID160743948	1.52
41	PNRC2 (GeneID 55629)	SID160743949	3.53 (active)
42	PNRC2 (GeneID 55629)	SID160743950	-0.239
43	ADAMTSL3 (GeneID 57188)	SID160731592	-2.37
44	ADAMTSL3 (GeneID 57188)	SID160745791	-2.1
45	ADAMTSL3 (GeneID 57188)	SID160745792	-0.783
46	STK40 (GeneID 83931)	SID160732000	0.278
47	STK40 (GeneID 83931)	SID160751542	1.25
48	STK40 (GeneID 83931)	SID160751543	0.415
49	ZDHHC8BP (GeneID 150244)	SID160758928	3.61 (active)
50	ZDHHC8BP (GeneID 150244)	SID160758929	-1.09
51	ZDHHC8BP (GeneID 150244)	SID160758931	0.313
52	CYSLTR2 (GeneID 57105)	SID160745605	-0.394
53	CYSLTR2 (GeneID 57105)	SID160745606	-0.847
54	CYSLTR2 (GeneID 57105)	SID160745607	-1.46
55	HSBP1L1 (GeneID 440498)	SID160733396	-2.16
56	HSBP1L1 (GeneID 440498)	SID160767793	3.22 (active)
57	HSBP1L1 (GeneID 440498)	SID160767794	-0.388
58	LMLN (GeneID 89782)	SID160753418	0.589
59	LMLN (GeneID 89782)	SID160753419	-0.529
60	LMLN (GeneID 89782)	SID160753420	-2.01
61	LINC00683 (GeneID 400660)	SID160733324	0.878
62	LINC00683 (GeneID 400660)	SID160767017	0.286
63	LINC00683 (GeneID 400660)	SID160767018	0.663
64	DCAF8 (GeneID 50717)	SID160739696	-0.612
65	DCAF8 (GeneID 50717)	SID160739698	0.091
66	DCAF8 (GeneID 50717)	SID160739699	-0.996
67	CHD3 (GeneID 1107)	SID160742543	0.0962
68	CHD3 (GeneID 1107)	SID160742554	1.86
69	CHD3 (GeneID 1107)	SID160742565	-0.579
70	LOC728684 (retired record) (GeneID 728684)	SID160726790	-1.53
71	LOC728684 (retired record) (GeneID 728684)	SID160726791	-0.563
72	LOC728684 (retired record) (GeneID 728684)	SID160772033	-2.96
73	PGBDF (GeneID 146853)	SID160758433	2.6
74	PGBDF (GeneID 146853)	SID160758434	1.84
75	PGBDF (GeneID 146853)	SID160758435	0.588
